# Source: publication PMC8915576 (Frontiers in Pain Research, 2021)
# Protein sequences, listed by entry. Tags and fused reporters are not part of them.
# UniProt P42866, whole entry: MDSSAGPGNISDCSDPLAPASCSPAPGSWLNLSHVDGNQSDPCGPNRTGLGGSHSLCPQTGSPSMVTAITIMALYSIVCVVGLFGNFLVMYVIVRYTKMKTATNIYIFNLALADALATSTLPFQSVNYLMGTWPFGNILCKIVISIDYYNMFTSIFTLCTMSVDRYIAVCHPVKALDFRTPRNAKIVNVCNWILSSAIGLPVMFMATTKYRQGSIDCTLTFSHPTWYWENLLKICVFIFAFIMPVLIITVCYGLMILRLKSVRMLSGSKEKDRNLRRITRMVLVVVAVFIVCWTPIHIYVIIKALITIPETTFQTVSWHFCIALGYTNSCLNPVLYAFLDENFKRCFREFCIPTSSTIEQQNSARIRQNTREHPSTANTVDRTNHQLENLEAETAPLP
# UniProt P32121, whole entry: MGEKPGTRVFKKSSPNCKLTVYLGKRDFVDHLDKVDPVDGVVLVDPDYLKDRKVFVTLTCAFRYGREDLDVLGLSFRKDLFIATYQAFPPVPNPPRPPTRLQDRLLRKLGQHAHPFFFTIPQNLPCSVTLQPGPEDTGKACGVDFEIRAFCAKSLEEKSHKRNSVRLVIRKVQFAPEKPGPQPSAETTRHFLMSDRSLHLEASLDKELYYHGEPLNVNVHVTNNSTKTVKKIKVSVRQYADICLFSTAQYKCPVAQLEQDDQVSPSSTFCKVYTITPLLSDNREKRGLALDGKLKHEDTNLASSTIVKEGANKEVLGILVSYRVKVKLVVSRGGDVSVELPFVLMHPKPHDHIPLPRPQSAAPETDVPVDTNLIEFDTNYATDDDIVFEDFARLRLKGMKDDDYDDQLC
# No constants are given. Whether binding was seen depends on the method and setting. Binding seen in cells or lysates may run through a third protein. Some results given as binding are weak or reduced against the parent protein; the word gives no strength.
# Target: mMOR-Venus (mu opioid receptor, Venus-tagged) (mouse (from the label mMOR)) (UniProt P42866)
# Assay: FRET or BRET; live HEK293 cells co-transfected with mMOR-Venus (acceptor) and Renilla Luciferase8-tagged β-arrestin-1, β-arrestin-2 or Gαi (donor; Gαi with untagged Gβγ fusion); agonist added at 0 nM-100 μM (DAMGO, NKTR-181, oxycodone, morphine, fentanyl); coelenterazine h 4.5 μM; 30°C; netBRET as percent of the maximum DAMGO response, four-parameter fit
substance,measurement,value
β-arrestin-2-Renilla Luciferase8 (from UniProt P32121 1-409),binding,binds
